These are yes or no findings as the source states them, for the method shown. In cells and extracts the contact can be indirect. Some binding calls cover weakened binding; strength is not graded here. Each block holds one molecule with its values, some of them ahead of it.
Target: T1, interleukin-1 receptor-associated kinase-like 2 (Irak2) (mouse (endogenous in primary mouse cardiomyocytes)) (UniProt Q8CFA1)
T1 sequence: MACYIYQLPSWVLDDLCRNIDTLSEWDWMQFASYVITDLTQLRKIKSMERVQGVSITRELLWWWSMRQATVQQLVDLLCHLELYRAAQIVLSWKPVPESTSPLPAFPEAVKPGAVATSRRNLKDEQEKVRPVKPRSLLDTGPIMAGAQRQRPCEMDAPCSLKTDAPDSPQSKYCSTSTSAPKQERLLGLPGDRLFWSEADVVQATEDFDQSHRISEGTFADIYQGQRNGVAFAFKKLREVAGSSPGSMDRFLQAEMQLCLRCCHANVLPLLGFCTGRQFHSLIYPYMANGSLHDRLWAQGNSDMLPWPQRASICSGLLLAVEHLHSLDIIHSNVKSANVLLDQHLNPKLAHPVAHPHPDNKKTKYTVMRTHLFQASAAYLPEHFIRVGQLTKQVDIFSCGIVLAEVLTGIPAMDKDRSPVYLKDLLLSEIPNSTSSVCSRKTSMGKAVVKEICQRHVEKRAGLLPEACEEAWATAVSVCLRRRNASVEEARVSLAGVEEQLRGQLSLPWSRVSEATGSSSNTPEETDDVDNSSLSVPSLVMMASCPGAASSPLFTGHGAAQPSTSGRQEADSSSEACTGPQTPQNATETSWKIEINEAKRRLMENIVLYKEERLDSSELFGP
Assay: co-IP; Co-IP of Irak2 and Phb-Opa1 in myocardial mitochondria, upon PA challenge (Additional file 1: Fig. S4)

Sequences of proteins named here, by UniProt entry; tags and fusion partners are left off. Residues count along the entry.
UniProt P58281, residues 88-960: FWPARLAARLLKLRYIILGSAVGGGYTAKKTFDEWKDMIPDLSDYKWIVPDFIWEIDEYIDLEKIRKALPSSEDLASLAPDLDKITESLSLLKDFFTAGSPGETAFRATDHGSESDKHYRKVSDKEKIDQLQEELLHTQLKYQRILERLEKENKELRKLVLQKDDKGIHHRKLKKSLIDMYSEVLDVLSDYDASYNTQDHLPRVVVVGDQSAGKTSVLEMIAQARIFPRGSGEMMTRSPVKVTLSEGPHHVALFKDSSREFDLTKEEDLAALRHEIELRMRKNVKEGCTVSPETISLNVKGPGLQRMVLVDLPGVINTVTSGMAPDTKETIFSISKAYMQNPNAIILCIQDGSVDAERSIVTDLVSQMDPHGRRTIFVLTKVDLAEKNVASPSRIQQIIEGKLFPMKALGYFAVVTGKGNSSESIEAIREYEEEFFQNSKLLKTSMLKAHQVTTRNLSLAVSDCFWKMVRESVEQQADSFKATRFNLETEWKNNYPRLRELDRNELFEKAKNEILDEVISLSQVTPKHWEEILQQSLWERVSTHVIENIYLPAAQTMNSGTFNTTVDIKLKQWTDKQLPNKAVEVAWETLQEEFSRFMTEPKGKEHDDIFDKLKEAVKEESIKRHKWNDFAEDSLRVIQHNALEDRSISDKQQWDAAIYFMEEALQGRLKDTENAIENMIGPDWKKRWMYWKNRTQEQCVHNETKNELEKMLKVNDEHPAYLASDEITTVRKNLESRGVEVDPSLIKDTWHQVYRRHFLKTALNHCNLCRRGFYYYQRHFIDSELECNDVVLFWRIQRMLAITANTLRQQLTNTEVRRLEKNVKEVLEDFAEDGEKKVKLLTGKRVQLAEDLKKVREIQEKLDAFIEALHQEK

binding: binds
Molecule: optic atrophy protein 1 (Opa1) (from UniProt P58281 88-960)

binding: binds
B1: prohibitin (Phb) (protein, UniProt P67778 1-272)
chain: MAAKVFESIGKFGLALAVAGGVVNSALYNVDAGHRAVIFDRFRGVQDIVVGEGTHFLIPWVQKPIIFDCRSRPRNVPVITGSKDLQNVNITLRILFRPVASQLPRIYTSIGEDYDERVLPSITTEILKSVVARFDAGELITQRELVSRQVSDDLTERAATFGLILDDVSLTHLTFGKEFTEAVEAKQVAQQEAERARFVVEKAEQQKKAAIISAEGDSKAAELIANSLATAGDGLIELRKLEAAEDIAYQLSRSRNITYLPAGQSVLLQLPQ

From article PMC10712050
